log2 fold change data for 39 targets are collected here from the supplement of paper PMC10849652.

Protein sequences, listed by entry. Tags and fused reporters are not part of them. Lines headed by an entry give the natural chain unless they say otherwise; changes in a name come on top.
UniProt Q15041, whole entry, looked up: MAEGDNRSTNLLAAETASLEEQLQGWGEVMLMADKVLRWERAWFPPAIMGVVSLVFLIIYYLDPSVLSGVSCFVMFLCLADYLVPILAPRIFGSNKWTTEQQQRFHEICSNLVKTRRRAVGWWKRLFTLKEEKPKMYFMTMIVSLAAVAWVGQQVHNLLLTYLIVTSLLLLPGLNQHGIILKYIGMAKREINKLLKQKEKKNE
UniProt P56134: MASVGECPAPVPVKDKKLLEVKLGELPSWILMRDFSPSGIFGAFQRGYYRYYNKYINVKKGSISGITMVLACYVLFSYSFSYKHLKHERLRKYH
UniProt P38606, whole entry, looked up: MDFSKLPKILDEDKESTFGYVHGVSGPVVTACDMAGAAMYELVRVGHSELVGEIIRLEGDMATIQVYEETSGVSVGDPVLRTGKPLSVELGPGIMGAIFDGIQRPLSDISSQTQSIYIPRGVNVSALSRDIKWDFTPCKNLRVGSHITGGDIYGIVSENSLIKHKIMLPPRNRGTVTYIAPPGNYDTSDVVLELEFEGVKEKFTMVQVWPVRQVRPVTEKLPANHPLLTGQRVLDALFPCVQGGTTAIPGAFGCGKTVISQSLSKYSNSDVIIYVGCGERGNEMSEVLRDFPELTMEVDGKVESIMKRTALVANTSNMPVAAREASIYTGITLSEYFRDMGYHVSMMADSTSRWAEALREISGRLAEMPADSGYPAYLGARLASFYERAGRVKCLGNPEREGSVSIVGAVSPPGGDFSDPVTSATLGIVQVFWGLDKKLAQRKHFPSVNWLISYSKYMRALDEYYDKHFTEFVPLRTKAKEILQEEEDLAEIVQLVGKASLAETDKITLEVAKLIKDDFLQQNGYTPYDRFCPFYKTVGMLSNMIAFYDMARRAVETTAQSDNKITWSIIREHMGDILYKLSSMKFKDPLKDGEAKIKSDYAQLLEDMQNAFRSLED
UniProt O75787, whole entry, looked up: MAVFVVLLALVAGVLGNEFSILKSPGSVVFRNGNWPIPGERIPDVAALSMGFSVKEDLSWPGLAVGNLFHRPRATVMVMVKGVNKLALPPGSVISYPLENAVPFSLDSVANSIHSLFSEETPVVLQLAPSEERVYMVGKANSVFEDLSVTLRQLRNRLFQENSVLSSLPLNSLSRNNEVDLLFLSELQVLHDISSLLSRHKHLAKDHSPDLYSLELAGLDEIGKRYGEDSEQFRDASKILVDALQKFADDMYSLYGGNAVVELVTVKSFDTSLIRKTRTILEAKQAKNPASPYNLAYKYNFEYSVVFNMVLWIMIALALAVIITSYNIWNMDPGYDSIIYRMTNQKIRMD
UniProt O95376: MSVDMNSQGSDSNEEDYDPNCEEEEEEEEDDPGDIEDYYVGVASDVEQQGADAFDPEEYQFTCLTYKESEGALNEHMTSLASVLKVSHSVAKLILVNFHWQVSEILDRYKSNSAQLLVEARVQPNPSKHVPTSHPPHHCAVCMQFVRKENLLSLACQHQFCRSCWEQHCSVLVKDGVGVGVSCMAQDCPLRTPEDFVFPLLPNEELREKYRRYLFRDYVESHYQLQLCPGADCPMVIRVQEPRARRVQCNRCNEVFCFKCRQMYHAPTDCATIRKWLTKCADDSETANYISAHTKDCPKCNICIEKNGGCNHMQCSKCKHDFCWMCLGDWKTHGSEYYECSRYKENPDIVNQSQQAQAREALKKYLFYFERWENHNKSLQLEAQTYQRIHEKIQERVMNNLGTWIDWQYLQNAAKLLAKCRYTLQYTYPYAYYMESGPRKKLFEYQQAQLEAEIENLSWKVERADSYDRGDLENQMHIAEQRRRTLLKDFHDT
UniProt Q96BY7: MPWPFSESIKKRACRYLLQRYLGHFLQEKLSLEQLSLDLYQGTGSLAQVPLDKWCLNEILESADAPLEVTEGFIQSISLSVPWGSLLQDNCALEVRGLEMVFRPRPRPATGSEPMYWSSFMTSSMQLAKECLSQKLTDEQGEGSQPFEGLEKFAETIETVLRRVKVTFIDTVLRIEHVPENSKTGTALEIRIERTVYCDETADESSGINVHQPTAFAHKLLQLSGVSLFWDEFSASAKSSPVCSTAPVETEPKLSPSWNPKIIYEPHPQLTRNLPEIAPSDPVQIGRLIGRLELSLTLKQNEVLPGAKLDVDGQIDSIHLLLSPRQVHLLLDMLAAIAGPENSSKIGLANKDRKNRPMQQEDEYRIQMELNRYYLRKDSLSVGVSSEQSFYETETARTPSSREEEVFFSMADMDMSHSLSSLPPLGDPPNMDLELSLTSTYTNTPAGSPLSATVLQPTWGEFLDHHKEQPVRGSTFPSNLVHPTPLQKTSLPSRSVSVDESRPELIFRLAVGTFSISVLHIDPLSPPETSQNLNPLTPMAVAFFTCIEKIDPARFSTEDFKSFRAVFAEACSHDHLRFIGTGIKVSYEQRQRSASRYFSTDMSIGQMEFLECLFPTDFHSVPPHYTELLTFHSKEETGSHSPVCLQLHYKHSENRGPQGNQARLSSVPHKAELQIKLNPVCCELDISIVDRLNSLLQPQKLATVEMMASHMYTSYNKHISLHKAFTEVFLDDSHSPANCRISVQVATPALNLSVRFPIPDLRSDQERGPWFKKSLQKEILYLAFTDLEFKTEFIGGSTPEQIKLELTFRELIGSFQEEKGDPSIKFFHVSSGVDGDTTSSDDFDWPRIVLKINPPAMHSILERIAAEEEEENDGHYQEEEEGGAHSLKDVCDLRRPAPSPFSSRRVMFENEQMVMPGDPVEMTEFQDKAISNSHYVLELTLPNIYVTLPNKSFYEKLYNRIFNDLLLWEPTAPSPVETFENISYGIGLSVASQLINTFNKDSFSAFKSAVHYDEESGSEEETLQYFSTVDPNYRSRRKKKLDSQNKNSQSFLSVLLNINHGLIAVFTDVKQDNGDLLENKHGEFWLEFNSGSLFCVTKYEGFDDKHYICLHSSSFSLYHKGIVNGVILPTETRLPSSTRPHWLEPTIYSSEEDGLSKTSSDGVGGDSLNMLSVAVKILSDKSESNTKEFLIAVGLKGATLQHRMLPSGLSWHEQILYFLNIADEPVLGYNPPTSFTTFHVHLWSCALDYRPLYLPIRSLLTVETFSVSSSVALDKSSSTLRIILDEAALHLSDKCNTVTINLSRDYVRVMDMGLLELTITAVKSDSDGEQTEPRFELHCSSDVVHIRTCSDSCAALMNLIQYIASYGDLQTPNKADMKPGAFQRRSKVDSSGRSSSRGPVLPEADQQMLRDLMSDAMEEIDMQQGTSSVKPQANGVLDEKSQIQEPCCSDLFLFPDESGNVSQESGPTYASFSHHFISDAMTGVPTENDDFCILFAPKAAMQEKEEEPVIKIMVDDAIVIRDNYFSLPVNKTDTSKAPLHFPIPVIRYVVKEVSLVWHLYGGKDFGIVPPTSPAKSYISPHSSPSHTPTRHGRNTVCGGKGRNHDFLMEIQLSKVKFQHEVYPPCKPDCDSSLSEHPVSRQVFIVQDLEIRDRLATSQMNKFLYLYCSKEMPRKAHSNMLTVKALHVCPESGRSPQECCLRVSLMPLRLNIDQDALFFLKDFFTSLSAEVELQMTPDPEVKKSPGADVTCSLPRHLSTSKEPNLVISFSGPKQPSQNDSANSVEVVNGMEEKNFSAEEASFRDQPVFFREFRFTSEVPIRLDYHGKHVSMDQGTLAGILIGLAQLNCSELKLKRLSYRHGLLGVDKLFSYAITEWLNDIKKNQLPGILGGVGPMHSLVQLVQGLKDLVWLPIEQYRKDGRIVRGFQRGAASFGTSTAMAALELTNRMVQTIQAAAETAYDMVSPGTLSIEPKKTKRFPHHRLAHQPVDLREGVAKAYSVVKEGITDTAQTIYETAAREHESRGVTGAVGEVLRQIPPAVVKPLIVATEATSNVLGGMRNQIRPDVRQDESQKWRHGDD
UniProt P56381: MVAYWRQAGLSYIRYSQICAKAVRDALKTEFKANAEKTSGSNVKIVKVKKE
UniProt Q12797: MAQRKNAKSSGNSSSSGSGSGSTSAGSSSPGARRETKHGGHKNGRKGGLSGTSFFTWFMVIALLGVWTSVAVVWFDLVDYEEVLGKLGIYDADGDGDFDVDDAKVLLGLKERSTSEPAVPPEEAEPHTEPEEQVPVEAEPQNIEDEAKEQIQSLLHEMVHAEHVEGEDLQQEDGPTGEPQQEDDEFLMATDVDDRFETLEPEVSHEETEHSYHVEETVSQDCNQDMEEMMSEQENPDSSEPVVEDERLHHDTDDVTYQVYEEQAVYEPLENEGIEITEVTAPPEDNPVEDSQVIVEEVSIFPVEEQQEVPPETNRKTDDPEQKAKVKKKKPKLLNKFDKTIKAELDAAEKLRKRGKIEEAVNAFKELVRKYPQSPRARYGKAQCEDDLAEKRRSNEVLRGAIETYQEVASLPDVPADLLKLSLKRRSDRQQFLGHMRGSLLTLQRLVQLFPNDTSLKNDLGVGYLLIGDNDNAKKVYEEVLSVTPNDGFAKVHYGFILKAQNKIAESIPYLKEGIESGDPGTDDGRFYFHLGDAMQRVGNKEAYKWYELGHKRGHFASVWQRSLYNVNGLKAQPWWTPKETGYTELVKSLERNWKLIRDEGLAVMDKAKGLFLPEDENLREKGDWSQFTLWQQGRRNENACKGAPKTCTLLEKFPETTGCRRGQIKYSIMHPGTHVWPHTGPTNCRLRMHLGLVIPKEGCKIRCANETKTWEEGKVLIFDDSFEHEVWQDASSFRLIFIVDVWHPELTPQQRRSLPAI
UniProt P18850: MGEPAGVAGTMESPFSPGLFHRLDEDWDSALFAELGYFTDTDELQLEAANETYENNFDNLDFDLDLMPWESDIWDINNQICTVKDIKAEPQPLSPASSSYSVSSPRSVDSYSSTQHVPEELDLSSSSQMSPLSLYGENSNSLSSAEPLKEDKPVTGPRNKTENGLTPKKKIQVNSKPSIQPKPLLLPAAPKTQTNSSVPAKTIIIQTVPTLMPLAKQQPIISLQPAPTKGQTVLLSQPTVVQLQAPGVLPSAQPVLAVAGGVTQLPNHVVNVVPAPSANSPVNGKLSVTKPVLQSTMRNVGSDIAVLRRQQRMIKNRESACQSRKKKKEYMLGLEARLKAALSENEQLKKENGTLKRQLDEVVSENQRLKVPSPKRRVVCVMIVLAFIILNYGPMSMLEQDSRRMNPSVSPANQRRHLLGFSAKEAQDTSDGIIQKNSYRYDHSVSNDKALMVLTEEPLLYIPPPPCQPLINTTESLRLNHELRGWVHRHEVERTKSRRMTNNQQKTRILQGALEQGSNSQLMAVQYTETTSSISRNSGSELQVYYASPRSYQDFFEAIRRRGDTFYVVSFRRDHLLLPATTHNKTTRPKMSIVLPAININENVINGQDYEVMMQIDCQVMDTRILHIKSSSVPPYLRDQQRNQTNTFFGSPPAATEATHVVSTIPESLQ
UniProt Q6DD88: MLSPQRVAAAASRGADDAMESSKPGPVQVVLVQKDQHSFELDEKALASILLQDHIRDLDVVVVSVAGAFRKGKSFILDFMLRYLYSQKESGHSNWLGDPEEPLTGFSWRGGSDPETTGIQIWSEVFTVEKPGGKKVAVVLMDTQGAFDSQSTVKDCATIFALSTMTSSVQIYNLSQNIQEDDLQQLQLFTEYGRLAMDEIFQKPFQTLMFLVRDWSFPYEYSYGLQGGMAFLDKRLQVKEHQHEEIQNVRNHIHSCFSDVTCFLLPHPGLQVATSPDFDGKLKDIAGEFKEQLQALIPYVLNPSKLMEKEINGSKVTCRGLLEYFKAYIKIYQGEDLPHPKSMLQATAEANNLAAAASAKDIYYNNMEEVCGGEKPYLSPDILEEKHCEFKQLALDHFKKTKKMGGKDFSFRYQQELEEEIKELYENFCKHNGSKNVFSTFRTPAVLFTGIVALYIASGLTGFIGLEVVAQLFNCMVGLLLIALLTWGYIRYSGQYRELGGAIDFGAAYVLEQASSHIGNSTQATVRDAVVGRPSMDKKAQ
UniProt P61421, whole entry, looked up: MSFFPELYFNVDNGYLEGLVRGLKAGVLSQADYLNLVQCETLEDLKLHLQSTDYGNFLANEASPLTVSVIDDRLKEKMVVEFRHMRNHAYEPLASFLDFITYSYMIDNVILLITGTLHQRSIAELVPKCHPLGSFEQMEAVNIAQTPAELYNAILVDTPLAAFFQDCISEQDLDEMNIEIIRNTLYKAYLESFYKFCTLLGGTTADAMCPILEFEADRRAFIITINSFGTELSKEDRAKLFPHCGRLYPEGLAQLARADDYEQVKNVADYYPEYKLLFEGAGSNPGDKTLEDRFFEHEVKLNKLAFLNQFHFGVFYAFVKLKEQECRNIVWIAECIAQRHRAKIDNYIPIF
UniProt Q9H2C2: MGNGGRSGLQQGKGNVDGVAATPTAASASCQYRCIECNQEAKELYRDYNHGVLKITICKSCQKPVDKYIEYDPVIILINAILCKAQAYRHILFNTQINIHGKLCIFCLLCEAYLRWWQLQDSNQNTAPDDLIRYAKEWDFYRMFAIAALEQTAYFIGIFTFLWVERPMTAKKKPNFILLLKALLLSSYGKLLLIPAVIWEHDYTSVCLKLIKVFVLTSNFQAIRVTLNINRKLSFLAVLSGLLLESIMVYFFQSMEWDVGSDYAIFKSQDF

The list shows a part of the results.

Compound in one experiment: CC1=C(C=C(C=C1)NC(=O)C2=CC(=CC=C2)C(C)(C)C#N)NC3=CC4=C(C=C3)N=CN(C4=O)C
The experiment in a line: log2 fold change, soluble protein after heating vs DMSO (PISA); higher = thermal stabilisation; K562 cells, 10 uM, 30 min; active = over 0.2 and 3.5 SD of the protein, either way, in both replicates (recomputed). The essentials: (§1)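 For each measurement, 10 μM compound was applied for 30 min to K562 cells at 2×10^6 cells/mL. Aliquots were heated for 3 min across 48°C-58°C, pooled, and extracted in PBS with 0.5% NP-40 at 4°C; the supernatant after 21,000xg for 90 min was soluble protein. This was quantified by TMTpro 16plex LC-MS/MS with channel sums equalised, and thermal stability was reported relative to control samples from duplicates, on a log2 fold-change scale.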
ATP7A isoform 3 (UniProt Q04656): the log2 fold change is inactive: -0.003.
Same read-out and setting: the value for ARPC1B (UniProt O15143) was inactive: -0.032; that for ASAP1 isoform 2 (UniProt Q9ULH1) was inactive: 0.055; that for ATG3 (UniProt Q9NT62) was inactive: -0.024.
Same read-out and setting: with ARL6IP1 (UniProt Q15041) the figure was inactive: -0.008; with ATG2A isoform 3 (UniProt Q2TAZ0), inactive: -0.013.
On the same count and under the same terms, with ARRB2 isoform 4 (UniProt P32121) the figure was inactive: -0.044; with ATP5MF (UniProt P56134), inactive: -0.001.
Regarding ASPM (UniProt Q8IZT6), the log2 fold change was inactive: -0.031.
On the same count and under the same terms, with ATP6V1A (UniProt P38606) the figure was inactive: 0.001; with ATP11B (UniProt Q9Y2G3), inactive: -0.038; with ASL (UniProt P04424), inactive: 0.01.
Still for that read-out and setting: with ATP6AP2 (UniProt O75787) the figure was inactive: 0.037.
Same read-out and setting: the value for ASAH1 isoform 2 (UniProt Q13510) was inactive: 0.022; that for ATP5F1A (UniProt P25705) was inactive: 0.002.
With ARIH2 (UniProt O95376), the log2 fold change is inactive: 0.038.
With ARPC3 (UniProt O15145), the log2 fold change was inactive: -0.03.
On the same count and under the same terms, the value for ATPAF2 (UniProt Q8N5M1) was inactive: -0.033; that for ATG2B (UniProt Q96BY7) was inactive: -0.057; that for ARPC1A (UniProt Q92747) was inactive: 0.02.
ATP5F1E (UniProt P56381): the log2 fold change was inactive: -0.026.
Same read-out and setting: with ATE1 isoform 2 (UniProt O95260) the figure was inactive: 0.02.
Still for that read-out and setting: the value for ASPH (UniProt Q12797) was inactive: 0.024.
Still for that read-out and setting: the value for ATF6 (UniProt P18850) was inactive: 0.038.
Consider ATP2C1 isoform 7 (UniProt P98194), for which the log2 fold change was inactive: -0.002.
On the same count and under the same terms, with ATL3 (UniProt Q6DD88) the figure was inactive: 0.023; with ARPC5 (UniProt O15511), inactive: -0.044; with ARPC2 (UniProt O15144), inactive: -0.035.
Still for that read-out and setting: the value for ATP5MC2 isoform 2 (UniProt Q06055) was inactive: 0.003.
The same measure, in the same setting: the value for ARMC1 (UniProt Q9NVT9) was inactive: 0.01; that for ATF2 (UniProt P15336) was inactive: 0.006.
With ATP6V0D1 (UniProt P61421), the log2 fold change was inactive: 0.02.
For the target ASCC3 (UniProt Q8N3C0), the log2 fold change is inactive: -0.155.
Still for that read-out and setting: with ARPC4 isoform 3 (UniProt P59998) the figure was inactive: -0.013.
The same measure, in the same setting: with ARV1 (UniProt Q9H2C2) the figure was inactive: 0.005.
The same measure, in the same setting: the value for ARSB (UniProt P15848) was inactive: 0.048.
With ASF1A (UniProt Q9Y294), the log2 fold change was inactive: 0.034.
The same measure, in the same setting: the value for ATP11C (UniProt Q8NB49) was inactive: -0.017; that for ATP2B4 (UniProt P23634) was inactive: -0.056.

Compound in a further experiment: CC1=C(C=C(C=C1)NC(=O)C2=CC(=CC=C2)N(C)C)NC(=O)C3=CC=C(C=C3)O
Described as above. The essentials:
as §1
ATP7A isoform 3 (UniProt Q04656): the log2 fold change is inactive: -0.008.
For the target ARPC1B (UniProt O15143), the log2 fold change was inactive: -0.018.
Turning to ASAP1 isoform 2 (UniProt Q9ULH1), the log2 fold change was inactive: -0.012.
On the same count and under the same terms, the value for ATG3 (UniProt Q9NT62) was inactive: -0.016.
Same read-out and setting: with ARL6IP1 (UniProt Q15041) the figure was inactive: 0.039.
Turning to ATG2A isoform 3 (UniProt Q2TAZ0), the log2 fold change was inactive: 0.018.
Still for that read-out and setting: the value for ARRB2 isoform 4 (UniProt P32121) was inactive: 0.
Same read-out and setting: with ATP5MF (UniProt P56134) the figure was inactive: 0.026.
Still for that read-out and setting: the value for ASPM (UniProt Q8IZT6) was inactive: -0.027.
As to ATP6V1A (UniProt P38606), the log2 fold change was inactive: 0.001.
On the same count and under the same terms, the value for ATP11B (UniProt Q9Y2G3) was inactive: 0.008.
On the same count and under the same terms, with ASL (UniProt P04424) the figure was inactive: -0.007; with ATP6AP2 (UniProt O75787), inactive: -0.097.
As to ASAH1 isoform 2 (UniProt Q13510), the log2 fold change is inactive: 0.005.
In the case of ATP5F1A (UniProt P25705), the log2 fold change is inactive: 0.018.
In the case of ARIH2 (UniProt O95376), the log2 fold change is inactive: 0.004.
With ARPC3 (UniProt O15145), the log2 fold change was inactive: -0.015.
The same measure, in the same setting: with ATPAF2 (UniProt Q8N5M1) the figure was inactive: 0.001.
Turning to ATG2B (UniProt Q96BY7), the log2 fold change was inactive: 0.049.
As for ARPC1A (UniProt Q92747), the log2 fold change is inactive: 0.033.
Same read-out and setting: with ATP5F1E (UniProt P56381) the figure was inactive: -0.007.
Take ATE1 isoform 2 (UniProt O95260): the log2 fold change was inactive: 0.004.
On the same count and under the same terms, with ASPH (UniProt Q12797) the figure was inactive: -0.03.
As for ATF6 (UniProt P18850), the log2 fold change was inactive: 0.029.
Same read-out and setting: the value for ATP2C1 isoform 7 (UniProt P98194) was inactive: 0.009.
On the same count and under the same terms, the value for ATL3 (UniProt Q6DD88) was inactive: -0.004; that for ARPC5 (UniProt O15511) was inactive: 0.
Same read-out and setting: the value for ARPC2 (UniProt O15144) was inactive: 0.013; that for ATP5MC2 isoform 2 (UniProt Q06055) was inactive: 0.121.
Regarding ARMC1 (UniProt Q9NVT9), the log2 fold change is inactive: 0.021.
Still for that read-out and setting: with ATF2 (UniProt P15336) the figure was inactive: 0.042.
Turning to ATP6V0D1 (UniProt P61421), the log2 fold change was inactive: -0.113.
With ASCC3 (UniProt Q8N3C0), the log2 fold change is inactive: 0.046.
As for ARPC4 isoform 3 (UniProt P59998), the log2 fold change was inactive: 0.106.
Same read-out and setting: with ARV1 (UniProt Q9H2C2) the figure was inactive: 0.019; with ARSB (UniProt P15848), inactive: 0.063; with ASF1A (UniProt Q9Y294), inactive: 0.069.
Same read-out and setting: with ATP11C (UniProt Q8NB49) the figure was inactive: -0.014; with ATP2B4 (UniProt P23634), inactive: -0.021.
